# Library screening results

Protein sequences, listed by entry. Tags and fused reporters are not part of them.
UniProt E9BF75, entry or part of it: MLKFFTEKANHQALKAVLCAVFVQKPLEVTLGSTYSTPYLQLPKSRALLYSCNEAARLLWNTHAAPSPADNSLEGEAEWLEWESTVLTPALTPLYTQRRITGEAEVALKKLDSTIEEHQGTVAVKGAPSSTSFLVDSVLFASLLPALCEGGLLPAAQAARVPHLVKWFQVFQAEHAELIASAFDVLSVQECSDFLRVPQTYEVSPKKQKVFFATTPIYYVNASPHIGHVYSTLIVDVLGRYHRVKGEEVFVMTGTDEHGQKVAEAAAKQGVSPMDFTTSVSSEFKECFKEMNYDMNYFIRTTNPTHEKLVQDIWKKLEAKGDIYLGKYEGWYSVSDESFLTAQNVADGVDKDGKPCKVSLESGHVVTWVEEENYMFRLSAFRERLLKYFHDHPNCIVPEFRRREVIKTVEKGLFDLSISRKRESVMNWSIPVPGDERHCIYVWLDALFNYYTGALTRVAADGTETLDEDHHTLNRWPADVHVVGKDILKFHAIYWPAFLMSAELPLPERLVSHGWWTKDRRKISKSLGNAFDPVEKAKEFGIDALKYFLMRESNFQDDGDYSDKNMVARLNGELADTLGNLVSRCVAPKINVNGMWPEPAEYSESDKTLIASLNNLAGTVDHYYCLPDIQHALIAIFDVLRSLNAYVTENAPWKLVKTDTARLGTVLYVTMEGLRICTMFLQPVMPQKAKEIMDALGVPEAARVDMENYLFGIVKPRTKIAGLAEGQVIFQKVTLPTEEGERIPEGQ

Measurements from “University of Dundee, Small-Polar-MMV Screening Library” (2021), ChEMBL document CHEMBL3988442.

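Methionyl-tRNA synthetase (putative), Leishmania donovani (UniProt E9BF75). Primary screen of methionyl-tRNA synthetase; the read-out is not stated. The test concentration is not given. Values are per cent inhibition. About 68,000 compounds were tested under these conditions; 0.035% (about 24) showed 50% or more at least once.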

Results are percentages, as filed. How 0% and 100% were set is not recorded. Most values in the screen are low, and negative values occur. Compounds were drawn at random from those tested, without regard to their results.

Compound: O=C(C[S+]([O-])Cc1cccc(C(F)(F)F)c1)NC1CCCC1 (centres unmarked)
Inhibition: 21.99

Compound: CC(C)C(C)NC(=O)Nc1ccc(CS(=O)(=O)C(C)C)cc1 (centres unmarked)
Inhibition: 9.492

Compound: CCCc1nnc(NC(=O)NC2CCOc3ccccc32)s1 (centres unmarked)
Inhibition: 14.89

Compound: Cc1cnc(N2CCC3(CC2)CC3CNC(=O)C2CCC2)nc1 (centres unmarked)
Inhibition: 13.14

Compound: Cc1nc(NCCO)cc(C(C)Cn2nc(C)c(C)c2C)n1 (centres unmarked)
Inhibition: 15.22

Compound: O=C(c1cccnc1)N1CCC2(CCN(C(=O)N3CCCC3)CC2)C1
Inhibition: 21.19

Compound: CCN(C)c1ncnc2c1CCN(C(=O)N1CCCC1)CC2
Inhibition: 14.64

Compound: c1ncc(Nc2nccc(C3CCCCN3CC3CCCCC3)n2)cn1 (centres unmarked)
Inhibition: 3.136

Compound: CNC(=O)c1cc(C2CCCN2)n[nH]1 (centres unmarked)
Inhibition: 11.39

Compound: Cc1ccc(C(=O)N2C[C@@H]3CC[C@H](C2)N(Cc2ccccc2)C3)cn1
Inhibition: 13.5

Compound: CN(Cc1ccco1)[C@@H]1CN(Cc2ccoc2)C[C@@H]2CCCO[C@@H]21
Inhibition: 9.15

Compound: Cc1nc(-c2ccco2)ccc1C(=O)N1CCCC1Cn1cccn1 (centres unmarked)
Inhibition: 5.556

Compound: CC(C)N(C)C(=O)C1=NOC2(CCN(C(=O)c3ccc(Cl)cc3)C2)C1 (centres unmarked)
Inhibition: 8.5

Compound: Cc1cccc(C(=O)Nc2c(C(N)=O)n[nH]c2C)c1C
Inhibition: 13.69

Compound: COC(=O)C1CCCN1C(=O)c1ccc(Br)cc1F (centres unmarked)
Inhibition: 1.918

Compound: Cc1nc(-c2noc3ccc(C(=O)NCCN4CCOCC4)cc23)cs1
Inhibition: 15.71

Compound: CN(C)C[C@H]1OC[C@@H]2CCN(S(=O)(=O)c3ccc(F)cc3)C[C@@H]21
Inhibition: 0

Compound: O=C(O)c1ccccc1CN1CCOC(CCc2ccncn2)C1 (centres unmarked)
Inhibition: 21.22

Compound: Cc1csc2ncnc(N3CCC(Cn4cc(C(C)(C)O)nn4)CC3)c12
Inhibition: 7.283

Compound: CC(C)CCN(CCC(C)C)Cc1nc2c(cnn2C)c(=O)[nH]1
Inhibition: 22.19

Compound: Cc1nc2sccn2c1C(=O)N1CCc2c(nc(N(C)C)[nH]c2=O)C1
Inhibition: 9.358

Compound: Cc1ccc(NC2CCN(C(=O)C(C)n3cncn3)CC2)nn1 (centres unmarked)
Inhibition: 16.67

Compound: CC(=O)N1N=C(c2ccncc2)OC1C(=O)N(C)CCc1ccccc1 (centres unmarked)
Inhibition: 6.944

Compound: CC1(c2ccc(Br)cc2)CC(=O)N(CC(N)=O)C1=O (centres unmarked)
Inhibition: 7.463

Compound: Cc1nccc(C(=O)N2CCCC2c2noc(C(C)C)n2)n1 (centres unmarked)
Inhibition: 9.206

Compound: Cc1csc(NC(=O)C2CCN(Cc3cccc4c3OCCO4)CC2)n1
Inhibition: 14.71

Compound: CN1CCCN(c2ccc(F)cc2CNC(=O)c2ccsc2)CC1
Inhibition: 3.794

Compound: Cc1ccccc1-c1cncc(C2CCN(Cc3cnn(C)c3)CC2)n1
Inhibition: 9.375

Compound: CN(C)C(=O)CN1CC=C(c2cnn(Cc3ccccc3)c2)CC1
Inhibition: 14.88

Compound: CCn1cnnc1CNC(=O)C1COc2ccc(Cl)cc2C1 (centres unmarked)
Inhibition: 6.69

Compound: CC(C)CN1CC[C@@H]2[C@@H]1CCN2S(=O)(=O)c1cccs1
Inhibition: 10.56

Compound: CN(Cc1ccccn1)C(=O)CC1CCOc2ccccc21 (centres unmarked)
Inhibition: 7.521

Compound: CN1CCN(C(=O)CCc2ccccc2)Cc2cccnc21
Inhibition: 13.44

Compound: CCN(c1ccc(C(=O)N2CCCC2c2cnn(C)c2)cn1)C(C)C (centres unmarked)
Inhibition: 3.631

Compound: CCn1nc(C)c2nc(C(C)C)nc(NCC(C)O)c21 (centres unmarked)
Inhibition: 26.38

Compound: CC(C)NC(=O)N1CCC(c2nccn2C(C)C)CC1
Inhibition: 16.05

Compound: COc1ccc(CN2CCN(C(=O)c3ccc(C)n3C)CC2)cc1
Inhibition: 17.63

Compound: CC1COCCN1C(=O)COc1ccc(Oc2ccccn2)cc1 (centres unmarked)
Inhibition: 11.26

Compound: CCOC(=O)CNC(=O)c1cccnc1Oc1ccc(Cl)cc1
Inhibition: 7.071

Compound: O=C(c1ccncc1F)N1CC2CC1(C(=O)N1CCCC1)C2
Inhibition: 12.32

Compound: CC1CCCCN1CCNC(=O)c1ccn(-c2ccc(F)cc2)n1 (centres unmarked)
Inhibition: 8.497

For reference, 3 entries once more:

{"compound": "CC(C)N(C)C(=O)C1=NOC2(CCN(C(=O)c3ccc(Cl)cc3)C2)C1", "stereo": "centres unmarked", "Inhibition": 8.5}
{"compound": "CC(C)CN1CC[C@@H]2[C@@H]1CCN2S(=O)(=O)c1cccs1", "Inhibition": 10.56}
{"compound": "CC(=O)N1N=C(c2ccncc2)OC1C(=O)N(C)CCc1ccccc1", "stereo": "centres unmarked", "Inhibition": 6.944}